From the supplement of paper PMC10849652 come the findings set out here.

Amino acid sequences for entries named in this document (tags omitted). A change or cut given only in a name is not applied to a line headed by its entry.
UniProt O60671: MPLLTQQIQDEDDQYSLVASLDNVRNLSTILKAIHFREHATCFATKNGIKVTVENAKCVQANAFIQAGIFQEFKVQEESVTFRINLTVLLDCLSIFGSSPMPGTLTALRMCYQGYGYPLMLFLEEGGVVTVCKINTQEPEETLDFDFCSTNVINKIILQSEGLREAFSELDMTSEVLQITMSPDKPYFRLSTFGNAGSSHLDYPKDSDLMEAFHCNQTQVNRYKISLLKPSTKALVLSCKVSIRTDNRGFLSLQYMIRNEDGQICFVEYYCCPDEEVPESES
UniProt Q96S59, whole entry, looked up: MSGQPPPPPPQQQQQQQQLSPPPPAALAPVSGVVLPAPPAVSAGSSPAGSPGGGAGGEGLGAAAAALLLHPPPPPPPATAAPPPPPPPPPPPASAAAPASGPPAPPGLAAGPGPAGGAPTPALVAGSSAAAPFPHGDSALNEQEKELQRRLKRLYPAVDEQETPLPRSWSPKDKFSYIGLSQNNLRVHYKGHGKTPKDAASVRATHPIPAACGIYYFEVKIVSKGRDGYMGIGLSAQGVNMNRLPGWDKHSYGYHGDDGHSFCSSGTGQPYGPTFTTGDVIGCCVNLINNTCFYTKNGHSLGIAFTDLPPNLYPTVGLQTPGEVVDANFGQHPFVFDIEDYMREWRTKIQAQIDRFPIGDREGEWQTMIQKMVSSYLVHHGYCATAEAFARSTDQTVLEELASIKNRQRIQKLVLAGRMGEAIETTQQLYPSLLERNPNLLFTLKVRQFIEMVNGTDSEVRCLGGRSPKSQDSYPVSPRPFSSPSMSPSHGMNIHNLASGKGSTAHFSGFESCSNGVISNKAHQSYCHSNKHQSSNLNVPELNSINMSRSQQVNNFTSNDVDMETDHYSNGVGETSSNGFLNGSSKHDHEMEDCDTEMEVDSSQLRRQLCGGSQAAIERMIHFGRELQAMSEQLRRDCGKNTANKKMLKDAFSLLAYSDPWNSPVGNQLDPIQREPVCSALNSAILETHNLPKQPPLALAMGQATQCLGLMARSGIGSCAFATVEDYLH
UniProt Q9UJ41, whole entry, looked up: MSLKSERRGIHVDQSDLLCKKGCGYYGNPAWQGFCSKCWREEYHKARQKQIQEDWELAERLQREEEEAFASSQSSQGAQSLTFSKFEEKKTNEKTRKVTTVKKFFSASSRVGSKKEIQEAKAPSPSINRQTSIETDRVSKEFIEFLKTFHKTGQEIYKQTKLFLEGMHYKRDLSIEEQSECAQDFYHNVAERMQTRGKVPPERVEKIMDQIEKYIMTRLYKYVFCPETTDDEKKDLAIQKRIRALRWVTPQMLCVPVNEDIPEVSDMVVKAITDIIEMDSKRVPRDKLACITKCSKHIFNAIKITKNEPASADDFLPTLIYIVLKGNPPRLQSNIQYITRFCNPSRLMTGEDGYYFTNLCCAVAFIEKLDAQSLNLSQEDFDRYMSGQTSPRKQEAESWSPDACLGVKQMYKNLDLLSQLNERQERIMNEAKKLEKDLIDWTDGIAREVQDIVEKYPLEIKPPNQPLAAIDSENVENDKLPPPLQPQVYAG
UniProt Q15276: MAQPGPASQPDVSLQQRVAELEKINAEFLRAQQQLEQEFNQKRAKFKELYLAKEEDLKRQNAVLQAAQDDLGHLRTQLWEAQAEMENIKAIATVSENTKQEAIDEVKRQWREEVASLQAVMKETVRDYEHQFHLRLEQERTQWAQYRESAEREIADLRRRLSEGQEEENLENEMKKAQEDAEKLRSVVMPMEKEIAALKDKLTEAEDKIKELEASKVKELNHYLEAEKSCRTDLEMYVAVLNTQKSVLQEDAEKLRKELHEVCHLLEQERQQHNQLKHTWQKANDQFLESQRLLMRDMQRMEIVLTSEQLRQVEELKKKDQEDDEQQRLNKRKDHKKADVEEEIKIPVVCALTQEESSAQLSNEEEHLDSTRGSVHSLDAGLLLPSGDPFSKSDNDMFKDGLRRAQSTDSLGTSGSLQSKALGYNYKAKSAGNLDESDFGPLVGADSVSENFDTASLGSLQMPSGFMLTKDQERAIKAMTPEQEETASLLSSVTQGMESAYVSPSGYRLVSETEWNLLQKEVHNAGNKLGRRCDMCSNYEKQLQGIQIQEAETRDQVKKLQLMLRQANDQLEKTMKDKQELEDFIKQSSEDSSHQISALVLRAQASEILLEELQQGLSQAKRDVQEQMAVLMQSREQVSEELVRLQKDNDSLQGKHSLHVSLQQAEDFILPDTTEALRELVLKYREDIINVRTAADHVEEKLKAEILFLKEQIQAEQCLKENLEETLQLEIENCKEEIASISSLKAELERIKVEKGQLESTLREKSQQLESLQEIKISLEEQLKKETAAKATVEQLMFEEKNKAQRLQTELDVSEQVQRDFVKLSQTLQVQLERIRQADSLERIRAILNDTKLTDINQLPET
UniProt Q6GYQ0: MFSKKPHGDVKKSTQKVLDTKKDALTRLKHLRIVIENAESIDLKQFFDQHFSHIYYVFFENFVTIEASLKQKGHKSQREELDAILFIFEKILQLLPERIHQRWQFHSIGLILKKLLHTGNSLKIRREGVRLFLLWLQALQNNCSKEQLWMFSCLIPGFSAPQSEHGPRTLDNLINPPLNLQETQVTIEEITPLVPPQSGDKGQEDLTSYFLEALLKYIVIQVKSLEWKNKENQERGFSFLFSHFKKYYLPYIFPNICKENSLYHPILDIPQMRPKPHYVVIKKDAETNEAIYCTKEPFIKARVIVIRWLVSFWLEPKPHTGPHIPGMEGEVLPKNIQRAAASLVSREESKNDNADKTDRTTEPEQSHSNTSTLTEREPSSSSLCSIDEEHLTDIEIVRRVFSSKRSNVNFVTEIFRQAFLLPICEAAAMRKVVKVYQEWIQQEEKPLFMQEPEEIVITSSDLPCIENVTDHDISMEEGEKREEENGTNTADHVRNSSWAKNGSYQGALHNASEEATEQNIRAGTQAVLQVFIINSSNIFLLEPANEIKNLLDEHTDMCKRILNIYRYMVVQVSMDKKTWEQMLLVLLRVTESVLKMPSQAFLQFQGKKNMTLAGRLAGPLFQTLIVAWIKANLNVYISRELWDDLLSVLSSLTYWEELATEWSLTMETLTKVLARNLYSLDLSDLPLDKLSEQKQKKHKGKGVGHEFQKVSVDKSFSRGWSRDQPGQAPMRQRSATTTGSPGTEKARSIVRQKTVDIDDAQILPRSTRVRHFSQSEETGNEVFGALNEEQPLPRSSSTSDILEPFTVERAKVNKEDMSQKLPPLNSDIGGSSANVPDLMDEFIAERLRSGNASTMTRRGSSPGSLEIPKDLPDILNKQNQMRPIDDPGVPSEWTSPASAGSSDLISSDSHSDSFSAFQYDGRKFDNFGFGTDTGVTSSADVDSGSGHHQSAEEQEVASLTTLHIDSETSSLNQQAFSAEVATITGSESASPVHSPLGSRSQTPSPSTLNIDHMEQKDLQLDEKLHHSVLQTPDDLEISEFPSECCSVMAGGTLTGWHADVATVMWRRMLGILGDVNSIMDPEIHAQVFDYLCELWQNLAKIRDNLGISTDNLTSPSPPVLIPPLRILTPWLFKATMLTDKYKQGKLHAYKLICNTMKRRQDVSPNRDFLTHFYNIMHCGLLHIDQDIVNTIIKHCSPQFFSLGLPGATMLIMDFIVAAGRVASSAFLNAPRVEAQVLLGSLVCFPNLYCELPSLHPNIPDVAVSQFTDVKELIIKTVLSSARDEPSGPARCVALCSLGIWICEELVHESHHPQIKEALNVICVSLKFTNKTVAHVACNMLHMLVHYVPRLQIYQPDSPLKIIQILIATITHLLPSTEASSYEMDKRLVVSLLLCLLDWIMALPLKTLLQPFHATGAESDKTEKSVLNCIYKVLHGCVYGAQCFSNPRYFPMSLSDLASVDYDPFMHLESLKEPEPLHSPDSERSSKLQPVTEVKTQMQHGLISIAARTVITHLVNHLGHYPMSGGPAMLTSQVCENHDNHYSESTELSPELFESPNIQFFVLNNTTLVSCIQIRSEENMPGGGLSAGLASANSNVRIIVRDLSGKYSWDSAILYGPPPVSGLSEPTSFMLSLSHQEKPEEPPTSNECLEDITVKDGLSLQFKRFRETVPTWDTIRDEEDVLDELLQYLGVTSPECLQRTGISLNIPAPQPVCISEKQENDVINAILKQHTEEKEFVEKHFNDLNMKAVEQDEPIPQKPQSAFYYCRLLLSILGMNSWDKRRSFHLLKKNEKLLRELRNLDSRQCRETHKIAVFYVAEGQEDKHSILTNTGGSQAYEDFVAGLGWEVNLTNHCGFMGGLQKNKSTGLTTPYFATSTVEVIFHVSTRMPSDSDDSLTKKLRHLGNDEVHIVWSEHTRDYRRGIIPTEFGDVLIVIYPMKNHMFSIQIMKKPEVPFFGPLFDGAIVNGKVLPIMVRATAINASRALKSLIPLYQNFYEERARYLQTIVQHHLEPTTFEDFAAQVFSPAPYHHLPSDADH
UniProt Q9UI14, whole entry, looked up: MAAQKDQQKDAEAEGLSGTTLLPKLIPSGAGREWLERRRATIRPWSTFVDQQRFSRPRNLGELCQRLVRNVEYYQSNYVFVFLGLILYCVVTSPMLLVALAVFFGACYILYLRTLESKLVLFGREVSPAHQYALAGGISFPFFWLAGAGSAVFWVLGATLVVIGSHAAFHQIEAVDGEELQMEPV
UniProt Q9NRW1: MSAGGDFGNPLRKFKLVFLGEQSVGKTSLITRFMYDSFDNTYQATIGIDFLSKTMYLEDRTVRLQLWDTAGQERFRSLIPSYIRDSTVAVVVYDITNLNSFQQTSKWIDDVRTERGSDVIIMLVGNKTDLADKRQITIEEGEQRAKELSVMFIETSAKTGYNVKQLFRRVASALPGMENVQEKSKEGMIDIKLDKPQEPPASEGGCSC
UniProt P20339: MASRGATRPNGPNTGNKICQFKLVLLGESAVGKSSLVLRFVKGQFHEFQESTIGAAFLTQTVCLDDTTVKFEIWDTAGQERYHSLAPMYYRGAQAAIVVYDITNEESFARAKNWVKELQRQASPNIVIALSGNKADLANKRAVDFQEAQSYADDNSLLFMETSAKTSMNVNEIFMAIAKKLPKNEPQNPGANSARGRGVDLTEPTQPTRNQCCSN
UniProt Q53H96: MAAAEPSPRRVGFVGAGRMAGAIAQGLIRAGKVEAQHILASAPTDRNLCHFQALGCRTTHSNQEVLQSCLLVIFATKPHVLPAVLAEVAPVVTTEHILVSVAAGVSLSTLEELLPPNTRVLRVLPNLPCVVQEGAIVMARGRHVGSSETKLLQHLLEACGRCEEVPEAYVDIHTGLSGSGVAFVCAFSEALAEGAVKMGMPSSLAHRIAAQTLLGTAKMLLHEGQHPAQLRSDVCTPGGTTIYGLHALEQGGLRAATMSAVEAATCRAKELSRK
UniProt P61026: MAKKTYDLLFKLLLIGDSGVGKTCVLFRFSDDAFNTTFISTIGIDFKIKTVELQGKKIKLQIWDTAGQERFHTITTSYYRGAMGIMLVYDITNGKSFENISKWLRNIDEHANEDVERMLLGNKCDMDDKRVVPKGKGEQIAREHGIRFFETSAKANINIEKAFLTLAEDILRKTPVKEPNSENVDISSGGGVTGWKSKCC
UniProt P20340: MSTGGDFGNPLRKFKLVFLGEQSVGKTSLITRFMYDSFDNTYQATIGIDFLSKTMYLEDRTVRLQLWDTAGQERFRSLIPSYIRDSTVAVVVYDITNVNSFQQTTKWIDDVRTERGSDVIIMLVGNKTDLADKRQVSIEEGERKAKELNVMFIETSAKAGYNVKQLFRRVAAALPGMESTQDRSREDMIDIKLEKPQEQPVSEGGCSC
UniProt Q9NX57: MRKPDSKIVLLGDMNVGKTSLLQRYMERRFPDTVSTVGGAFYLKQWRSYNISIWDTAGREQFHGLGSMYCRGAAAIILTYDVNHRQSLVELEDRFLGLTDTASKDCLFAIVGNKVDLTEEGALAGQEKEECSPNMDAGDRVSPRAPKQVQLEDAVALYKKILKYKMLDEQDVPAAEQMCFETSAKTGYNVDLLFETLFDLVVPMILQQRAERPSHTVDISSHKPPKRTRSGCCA
UniProt P62491: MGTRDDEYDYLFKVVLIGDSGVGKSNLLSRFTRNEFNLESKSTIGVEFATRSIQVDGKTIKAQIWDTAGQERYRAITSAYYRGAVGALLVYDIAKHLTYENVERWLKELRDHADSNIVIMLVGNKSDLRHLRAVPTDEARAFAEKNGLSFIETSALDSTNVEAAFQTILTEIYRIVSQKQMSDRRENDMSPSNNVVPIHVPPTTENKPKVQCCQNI
UniProt P62834: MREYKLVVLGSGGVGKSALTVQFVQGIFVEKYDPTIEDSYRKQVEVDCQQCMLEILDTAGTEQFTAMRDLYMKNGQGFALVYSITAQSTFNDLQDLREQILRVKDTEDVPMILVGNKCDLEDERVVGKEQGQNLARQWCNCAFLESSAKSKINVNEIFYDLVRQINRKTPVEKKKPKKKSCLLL
UniProt P61224: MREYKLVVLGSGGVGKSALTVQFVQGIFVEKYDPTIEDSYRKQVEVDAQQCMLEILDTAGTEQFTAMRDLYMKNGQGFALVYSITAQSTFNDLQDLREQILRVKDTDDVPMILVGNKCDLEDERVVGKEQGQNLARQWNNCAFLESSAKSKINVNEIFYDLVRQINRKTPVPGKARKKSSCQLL

The list shows a part of the results.

Compound in this assay: CC(C)(O)CC(=O)NCCn1ccc2ncnc(Nc3ccc(Oc4cccc(C(F)(F)F)c4)c(Cl)c3)c21
The assay can be described thus: log2 fold change, soluble protein after heating vs DMSO (PISA); higher = thermal stabilisation; K562 lysate, 10 uM; active = over 0.2 and 3.5 SD of the protein, either way, in both replicates (recomputed). The method in brief:
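A 30 min treatment with 10 μM compound was applied to crude K562 extract at 1 mg/mL protein in PBS pH 7.4 with 1 mM MgCl2. Heating for 3 min spanned 48°C-58°C, after which aliquots were pooled, adjusted to 0.5% NP-40 at 4°C and spun at 21,000xg for 90 min. TMTpro 16plex LC-MS/MS of the supernatant, with channel sums equalised, gave values recorded as log-two fold change in thermal stability against solvent controls, from duplicates.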
Take RACGAP1 (UniProt Q9H0H5): the log2 fold change was inactive: 0.008.

With RAD1 (UniProt O60671), the log2 fold change is inactive: 0.039.

Turning to RAC2 (UniProt P15153), the log2 fold change was inactive: -0.027.

Regarding RABEPK (UniProt Q7Z6M1), the log2 fold change was inactive: -0.006.

Take RANBP9 (UniProt Q96S59): the log2 fold change is inactive: -0.054.

RAD51C (UniProt O43502): the log2 fold change is inactive: 0.009.

In the case of RABGEF1 isoform 3 (UniProt Q9UJ41), the log2 fold change is inactive: -0.015.

On to RANBP6 (UniProt O60518), for which the log2 fold change is inactive: -0.066.

Regarding RABEP1 (UniProt Q15276), the log2 fold change is inactive: -0.044.

RALGAPA1 isoform 6 (UniProt Q6GYQ0): the log2 fold change was inactive: 0.002.

Turning to RABAC1 (UniProt Q9UI14), the log2 fold change is inactive: -0.029.

Regarding RAB5B (UniProt P61020), the log2 fold change was inactive: 0.011.

For the target RAB6B (UniProt Q9NRW1), the log2 fold change was inactive: 0.005.

Consider RAB5A (UniProt P20339), for which the log2 fold change was inactive: -0.009.

As to RAB24 (UniProt Q969Q5), the log2 fold change is inactive: 0.01.

Consider PYCR3 (UniProt Q53H96), for which the log2 fold change was inactive: 0.003.

As for RAB10 (UniProt P61026), the log2 fold change was inactive: 0.017.

Regarding RAN (UniProt P62826), the log2 fold change was inactive: 0.001.

Take RAP2B (UniProt P61225): the log2 fold change was inactive: 0.042.

As for RAB8B (UniProt Q92930), the log2 fold change was inactive: -0.013.

On to RAB6A isoform 4 (UniProt P20340), for which the log2 fold change was inactive: 0.003.

Take RAB20 (UniProt Q9NX57): the log2 fold change was inactive: -0.108.

Take RAP2C (UniProt Q9Y3L5): the log2 fold change is inactive: -0.042.

With RAP1GAP isoform 4 (UniProt P47736), the log2 fold change is inactive: -0.037.

Consider RAD51 (UniProt Q06609), for which the log2 fold change was inactive: -0.034.

Take RAD23B (UniProt P54727): the log2 fold change was inactive: -0.012.

Take RAP2A (UniProt P10114): the log2 fold change is inactive: -0.018.

RAB11A (UniProt P62491): the log2 fold change is inactive: -0.035.

As to QRSL1 (UniProt Q9H0R6), the log2 fold change is inactive: -0.064.

Take RAP1A (UniProt P62834): the log2 fold change was inactive: 0.002.

In the case of RAP1B (UniProt P61224), the log2 fold change was inactive: -0.03.

Take RAPGEF2, A0A2R8YGD3: the log2 fold change is inactive: -0.037.

For RANBP17 (UniProt Q9H2T7), the log2 fold change is inactive: -0.057.
